The source of these data is patent publication US20190194322A1.

In assay [1] the target is Recombinant human VSIG3 Fc Chimera (human (homo sapiens)). Description: SPR (Biacore), VSIG3-Fc immobilised, antibody as analyte (FIG. 14). A general note: Surface plasmon resonance follows binding to a sensor surface in real time, without labels.
The next assay deals with T1, VSIG3 His-fusion (human) (UniProt Q5DX21).
T1 sequence (biotinylated (in the co-immunoprecipitation of FIG. 2), looked up): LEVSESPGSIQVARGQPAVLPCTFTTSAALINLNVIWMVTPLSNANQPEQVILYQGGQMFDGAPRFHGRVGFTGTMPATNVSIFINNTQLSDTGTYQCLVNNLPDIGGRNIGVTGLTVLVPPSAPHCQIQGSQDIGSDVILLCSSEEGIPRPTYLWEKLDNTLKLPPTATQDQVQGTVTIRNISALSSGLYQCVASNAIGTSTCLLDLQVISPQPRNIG
The assay can be described thus: SPR (Biacore), antibody captured, VSIG3-His as analyte (FIG. 15).

No constants are given. Whether binding was seen depends on the method and setting. Some results given as binding are weak or reduced against the parent protein; the word gives no strength. For some of these results: Sequences can lack the tags named with a protein.

B1: mouse anti-human VSIG3 monoclonal antibody from clone #774213 (antibody, mouse IgG2b, kappa, V domains shown)
VH: DVQLVESGGGLVQPGGSRKLSCAASGFTFSSFGMHWVRQAPEKGLEWVAYISSGSTTIYYADTVKGRFTISRDNPKNTLFLQMTSLRSEDTAMYYCTRGSYYRYDLYYAMDYWGQGTSVTVSS
VL: DIQMTQSPSSLSASLGGKVTITCKASQDIHKYVAWYQHKPGKGPRLLIHYTSTLQPGIPSRFSGSGSGSDYSFSISNLEPADIASYYCLQYDNLLFTFGGGTKLEIKR
In the case of B1, the binding entry (in assay [1]; with VSIG3 His-fusion (human)) was “binds” in each case.

B2: mouse anti-human VSIG3 monoclonal antibody from clone #774221 (antibody, IgG1, V domains shown)
VH: DVQLQESGPGLVKPSQSLSLTCTVTGYSITSDYAWNWIRQFPGNKLEWMGYISYSGYAIYNPSLKSRISITRDTSKNHFFLQLNSVTTEDTATYYCARSGGSWFAYWGQGTLVTVSA
VL: DIQMTQSPASLSASVGETVTITCRASENINSYLAWYQQKQGKSPQLLVYNAKTLAEGVPSRFSGSGSGTQFSLKINSLQPEDFGSYYCQHHYGTPPTFGGGTKLEIKR
As for B2, the binding entry (in assay [1]; with VSIG3 His-fusion (human)) was “binds” throughout.
